{"source": "patent US11433143B2", "about": "“Nano-enabled immunotherapy in cancer” (The Regents of the University of California, priority 2017, dated 2022)", "origin": "cited, not measured here", "conditions": "cited from earlier work", "data": [{"compound": "CC(=O)O[C@@]12CO[C@@H]1C[C@H](O)[C@@]1(C)C(=O)[C@H](O)C3=C(C)[C@@H](OC(=O)[C@H](O)[C@@H](NC(=O)OC(C)(C)C)c4ccccc4)C[C@@](O)([C@@H](OC(=O)c4ccccc4)[C@H]21)C3(C)C", "note": "[docetaxel]", "values": [{"measurement": "solubility in ethanol", "result": "~100", "unit": "mg/mL"}]}]}
